“And” between values parts separate entries of the source, which are not always exact repeats. Equal values may be shown once. Where a name gives a salt, the structure may show the parent alone. The list shows a part of the results. Single values are uncertain here, since repeats match poorly.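 HEK293T cells were given each compound shortly before transfection with a reporter in which red mCherry is followed by the SARS-CoV-2 frameshift element and then GFP in the −1 frame, so GFP appears only after frameshifting.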

The subject of the first test is SARS-CoV-2 -1 PRF reporter mCherry-FSE-GFP(-1). Description: mCherry (red) intensity as percent of control; higher = higher upstream reporter expression. To be noted: 10 µM; 24 h; HEK293T.
`CCOCc1nc2c(N)nc3ccccc3c2n1CC(C)(C)O` [resiquimod] returned a mCherry of 73.9%.

For the compound `CC(C)(Oc1ccc(C2CCCc3ccccc32)cc1)C(=O)O` (stereo not given) [nafenopin], the mCherry was determined as 113%.

In turn, `CCN(CC)CC#CCOC(=O)C(O)(c1ccccc1)C1CCCCC1` (stereo not given) came in with a mCherry of 98.5%.

The compound `CCN(CC)CC(=O)Nc1c(C)cccc1C` [lidocaine] returned a mCherry of 111%.

On to `CC(=O)NC(Cc1ccccc1)C(=O)O` (stereo not given), for which the mCherry was 110%.

As to `COc1cc(OC)cc(OCCO)c1` [floverine], the mCherry was found to be 122%.

In turn, `NC(Cc1ccccc1)C(=O)O` (stereo not given) displayed a mCherry of 103%.

In turn, `CC(O)Cn1cnc2c1c(=O)n(C)c(=O)n2C` (stereo not given) [proxyphylline] came in with a mCherry of 119%.

As to `O=C(O)[C@H]1/C(=C/CO)O[C@@H]2CC(=O)N21`, the mCherry was 103% and 89.9%.

With `N=C(N)N/N=C/c1c(Cl)cccc1Cl`, the mCherry was determined as 104%.

Regarding `NC(=O)N1c2ccccc2C=Cc2ccccc21` [carbamazepine], the mCherry is 122% and 144%.

For the compound `CO/N=C1\C[C@]2(C[C@@H]3C[C@@H](C/C=C(\C)C[C@@H](C)/C=C/C=C4\CO[C@@H]5[C@H](O)C(C)=C[C@@H](C(=O)O3)[C@]45O)O2)O[C@H](/C(C)=C/C(C)C)[C@H]1C` [moxidectin], the mCherry was determined as 105%.

The compound `C[C@]12C=CC(=O)C=C1CC[C@H]1[C@@H]3CC[C@](O)(C(=O)CO)[C@@]3(C)C[C@H](Cl)[C@@]12Cl` [dichlorisone] displayed a mCherry of 77.2%.

For `CCCN(CCc1cccs1)[C@H]1CCc2c(O)cccc2C1` [Neupro], the mCherry was determined as 109%.

Regarding `C[C@]12CCC(=O)C=C1[C@@H]1C[C@@H]1[C@H]1[C@@H]3[C@@H]4C[C@@H]4[C@@]4(CCC(=O)O4)[C@@]3(C)CC[C@@H]12` [drospirenone], the mCherry is 104% and 112%.

For `O=C(O)Cn1cc(I)c(=O)c(I)c1` [diodone], the mCherry amounted to 111%.

The compound `Cc1ccc2c(Br)cc(Br)c(O)c2n1` [broquinaldol] registered a mCherry of 76.1%.

`CCCCCCOc1ccccc1C(N)=O` [exalamide]: the mCherry was 115%.

With `COc1cc(OC)nc(O[C@H](C(=O)O)C(OC)(c2ccccc2)c2ccccc2)n1` [darusentan], the mCherry worked out at 138%.

On to `O=C(O)C1(C(=O)O)CCC1.[NH2-].[NH2-].[Pt+2]` [Carboplatin], for which the mCherry came out at 74%.

Turning to `CCN(CC)CC(=O)Nc1c(C)cccc1C(=O)OC` [tolycaine], the mCherry was 92.8%.

As to `Cc1c(C)c2c(c(C)c1O)CC[C@@](C)(CCC[C@H](C)CCC[C@H](C)CCCC(C)C)O2`, the mCherry stood at 87.1%.

Consider `C=CCc1ccccc1OCC(O)CNC(C)C` (stereo not given), for which the mCherry was found to be 119%.

`CCN(CC)CCNC(=O)c1ccc(NS(C)(=O)=O)cc1` [sematilide]: the mCherry came out at 82.3%.

`c1ccc(CN(CC2=NCCN2)c2ccccc2)cc1` [antazoline] had a mCherry of 91.7%.

The compound `C=CCSCC1Nc2cc(Cl)c(S(N)(=O)=O)cc2S(=O)(=O)N1` (stereo not given) [altizide] returned a mCherry of 117%.

Compound `O=C(O)/C=C/C(=O)O` returned a mCherry of 123%.

`CCN(CC)CCNC(=O)c1ccc(NC(C)=O)cc1` registered a mCherry of 101%.

Regarding `O=C(O)C[C@H](O)C[C@H](O)/C=C/c1c(C2CC2)nc2ccccc2c1-c1ccc(F)cc1`, the mCherry was 152%.

In the case of `CC(=O)Oc1cccc(C)c1`, the mCherry came to 95.7%.

`CC(=O)O[C@H]1C[C@@]2(C)[C@@H](C[C@@H](O)[C@H]3[C@@]4(C)CC[C@@H](O)[C@@H](C)[C@@H]4CC[C@@]32C)/C1=C(\CCC=C(C)C)C(=O)O` [Fusidic Acid] had a mCherry of 87%.

For the compound `O=C(O)/C=C/c1ccc(Cn2ccnc2)cc1` [Ozagrel], the mCherry was determined as 72.7%.

With `Cc1cc(Nc2ncc(Cl)c(Nc3ccccc3S(=O)(=O)C(C)C)n2)c(OC(C)C)cc1C1CCNCC1` [Ceritinib], the mCherry was found to be 80.1%.

In the case of `Cc1nc2c(C)cccn2c(=O)c1CCN1CCC(c2noc3cc(F)ccc23)CC1` [ocaperidone], the mCherry turned out to be 97.2%.

Regarding `C[C@@H]1C[C@H]2[C@@H]3C[C@H](F)C4=CC(=O)C=C[C@]4(C)[C@@]3(F)[C@@H](O)C[C@]2(C)[C@@]1(O)C(=O)COC(=O)C(C)(C)C`, the mCherry was 107%.

The compound `Clc1ccc2nsnc2c1NC1=NCCN1` [Tizanidine·HCl] showed a mCherry of 78.5%.

As to `Cc1c(C(=O)Nc2ccc(N3C[C@@H](C)O[C@@H](C)C3)nc2)cccc1-c1ccc(OC(F)(F)F)cc1` [Sonidegib], the mCherry turned out to be 106%.

The compound `O=C(O)CP(=O)(O)O` [fosfonet] came in with a mCherry of 80.4%.

Compound `CCOCCOC(=O)/C=C/c1ccc(OC)cc1` [cinoxate] registered a mCherry of 115%.

Compound `CC(=O)OC[C@H]1O[C@@H](n2ncc(=O)[nH]c2=O)[C@H](OC(C)=O)[C@@H]1OC(C)=O` [azaribine] displayed a mCherry of 50.9%.

For another test the test system is unchanged. The experiment in a line: percent effect, decrease of GFP/mCherry ratio (-1 PRF reporter) relative to controls; higher = stronger frameshift inhibition. Particulars: 10 µM; 24 h; HEK293T.
Turning to `CCOCc1nc2c(N)nc3ccccc3c2n1CC(C)(C)O` [resiquimod], the percent effect worked out at 1.82%.

As to `CC(C)(Oc1ccc(C2CCCc3ccccc32)cc1)C(=O)O` (stereo not given) [nafenopin], the percent effect worked out at 2.68%.

For the compound `CCN(CC)CC#CCOC(=O)C(O)(c1ccccc1)C1CCCCC1` (stereo not given), the percent effect was -3.03%.

`CCN(CC)CC(=O)Nc1c(C)cccc1C` [lidocaine]: the percent effect is -6.97%.

For the compound `CC(=O)NC(Cc1ccccc1)C(=O)O` (stereo not given), the percent effect is -0.65%.

Turning to `COc1cc(OC)cc(OCCO)c1` [floverine], the percent effect is -0.944%.

For `NC(Cc1ccccc1)C(=O)O` (stereo not given), the percent effect was -3.59%.

Turning to `CC(O)Cn1cnc2c1c(=O)n(C)c(=O)n2C` (stereo not given) [proxyphylline], the percent effect was -1.2%.

As for `O=C(O)[C@H]1/C(=C/CO)O[C@@H]2CC(=O)N21`, the percent effect was -0.551% and -12%.

For `N=C(N)N/N=C/c1c(Cl)cccc1Cl`, the percent effect was -7.63%.

Turning to `NC(=O)N1c2ccccc2C=Cc2ccccc21` [carbamazepine], the percent effect was -4.7% and 2.72%.

With `CO/N=C1\C[C@]2(C[C@@H]3C[C@@H](C/C=C(\C)C[C@@H](C)/C=C/C=C4\CO[C@@H]5[C@H](O)C(C)=C[C@@H](C(=O)O3)[C@]45O)O2)O[C@H](/C(C)=C/C(C)C)[C@H]1C` [moxidectin], the percent effect is -1.87%.

Turning to `C[C@]12C=CC(=O)C=C1CC[C@H]1[C@@H]3CC[C@](O)(C(=O)CO)[C@@]3(C)C[C@H](Cl)[C@@]12Cl` [dichlorisone], the percent effect was determined as 3.15%.

`CCCN(CCc1cccs1)[C@H]1CCc2c(O)cccc2C1` [Neupro]: the percent effect is -6.09%.

With `C[C@]12CCC(=O)C=C1[C@@H]1C[C@@H]1[C@H]1[C@@H]3[C@@H]4C[C@@H]4[C@@]4(CCC(=O)O4)[C@@]3(C)CC[C@@H]12` [drospirenone], the percent effect is -0.864% and -1.64%.

As for `O=C(O)Cn1cc(I)c(=O)c(I)c1` [diodone], the percent effect was found to be 2.83%.

On to `Cc1ccc2c(Br)cc(Br)c(O)c2n1` [broquinaldol], for which the percent effect is 10.5%.

As for `CCCCCCOc1ccccc1C(N)=O` [exalamide], the percent effect was 2.53%.

Regarding `COc1cc(OC)nc(O[C@H](C(=O)O)C(OC)(c2ccccc2)c2ccccc2)n1` [darusentan], the percent effect was -3.3%.

Take `O=C(O)C1(C(=O)O)CCC1.[NH2-].[NH2-].[Pt+2]` [Carboplatin]: the percent effect was found to be 1.57%.

Take `CCN(CC)CC(=O)Nc1c(C)cccc1C(=O)OC` [tolycaine]: the percent effect is -3.84%.

As to `Cc1c(C)c2c(c(C)c1O)CC[C@@](C)(CCC[C@H](C)CCC[C@H](C)CCCC(C)C)O2`, the percent effect was 1.01%.

Consider `C=CCc1ccccc1OCC(O)CNC(C)C` (stereo not given), for which the percent effect was -2.91%.

In the case of `CCN(CC)CCNC(=O)c1ccc(NS(C)(=O)=O)cc1` [sematilide], the percent effect was -11.1%.

As to `c1ccc(CN(CC2=NCCN2)c2ccccc2)cc1` [antazoline], the percent effect is -3.83%.

Take `C=CCSCC1Nc2cc(Cl)c(S(N)(=O)=O)cc2S(=O)(=O)N1` (stereo not given) [altizide]: the percent effect is -5.96%.

With `O=C(O)/C=C/C(=O)O`, the percent effect came to 2.47%.

Take `CCN(CC)CCNC(=O)c1ccc(NC(C)=O)cc1`: the percent effect is -1.1%.

On to `O=C(O)C[C@H](O)C[C@H](O)/C=C/c1c(C2CC2)nc2ccccc2c1-c1ccc(F)cc1`, for which the percent effect is -0.39%.

Consider `CC(=O)Oc1cccc(C)c1`, for which the percent effect is -5.51%.

Regarding `CC(=O)O[C@H]1C[C@@]2(C)[C@@H](C[C@@H](O)[C@H]3[C@@]4(C)CC[C@@H](O)[C@@H](C)[C@@H]4CC[C@@]32C)/C1=C(\CCC=C(C)C)C(=O)O` [Fusidic Acid], the percent effect is -6.21%.

As for `O=C(O)/C=C/c1ccc(Cn2ccnc2)cc1` [Ozagrel], the percent effect was -3.09%.

Regarding `Cc1cc(Nc2ncc(Cl)c(Nc3ccccc3S(=O)(=O)C(C)C)n2)c(OC(C)C)cc1C1CCNCC1` [Ceritinib], the percent effect came out at 0.117%.

`Cc1nc2c(C)cccn2c(=O)c1CCN1CCC(c2noc3cc(F)ccc23)CC1` [ocaperidone]: the percent effect was -9.52%.

For `C[C@@H]1C[C@H]2[C@@H]3C[C@H](F)C4=CC(=O)C=C[C@]4(C)[C@@]3(F)[C@@H](O)C[C@]2(C)[C@@]1(O)C(=O)COC(=O)C(C)(C)C`, the percent effect was -2.88%.

With `Clc1ccc2nsnc2c1NC1=NCCN1` [Tizanidine·HCl], the percent effect turned out to be 14.1%.

For the compound `Cc1c(C(=O)Nc2ccc(N3C[C@@H](C)O[C@@H](C)C3)nc2)cccc1-c1ccc(OC(F)(F)F)cc1` [Sonidegib], the percent effect turned out to be 0.259%.

As to `O=C(O)CP(=O)(O)O` [fosfonet], the percent effect was -7.73%.

On to `CCOCCOC(=O)/C=C/c1ccc(OC)cc1` [cinoxate], for which the percent effect amounted to 2.5%.

As to `CC(=O)OC[C@H]1O[C@@H](n2ncc(=O)[nH]c2=O)[C@H](OC(C)=O)[C@@H]1OC(C)=O` [azaribine], the percent effect is -3.28%.

For the origin of these results see the supplement of paper PMC8256030.
